Source: PubChem BioAssay AID1508597 (Cure First, 2020)
Shown is an unselected part of the about 2,100 reagents, under one of the conditions tested. 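Calls flag viability under 80% in either arm, not effects specific to rucaparib; the reference for percent is not stated.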 The record does not give: the 100% reference.

- Test: 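Survival screen with siRNA in ovarian cancer cells derived from patients, with or without rucaparib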 (primary screen)
- Cell system: human ovarian carcinoma lines grown from tumours: OCI-P5x (papillary serous) and OCI-C5x (clear cell)
- Knock-down reagent: siRNA pool against human genes, 1.25 pmol siRNA per well
- Duration: 72 h or 96 h, depending on the cell culture
- Conditions: rucaparib 20 µM (about IC30) or vehicle, present until read-out
- Rucaparib or vehicle: Rucaparib
- Cell line: OCI-P5x (serous)
- Detection: 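Luminescent ATP-based viability assay read 72 or 96 h after transfection, depending on culture, given as normalised percent viability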
- Direction: viability, normalised: higher = more viable cells remaining
- Rule for the call: 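a well counts as a hit if its normalised viability is under 80 percent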
- Meaning of the calls: active = viability under 80%; inactive = viability 80% or more

target gene | technical replicate | viability, normalised (%) | outcome
SLIT3 (slit guidance ligand 3) | 1 | 71 | active
SLIT3 (slit guidance ligand 3) | 2 | 54.2 | active
SLIT3 (slit guidance ligand 3) | 3 | 61.8 | active
RAD23B (RAD23 nucleotide excision repair protein B) | 1 | 59.3 | active
RAD23B (RAD23 nucleotide excision repair protein B) | 2 | 75.4 | active
RAD23B (RAD23 nucleotide excision repair protein B) | 3 | 57.2 | active
ZNF541 (zinc finger protein 541) | 1 | 54.4 | active
ZNF541 (zinc finger protein 541) | 2 | 41.1 | active
ZNF541 (zinc finger protein 541) | 3 | 46 | active
TLR7 (toll like receptor 7) | 1 | 60.3 | active
TLR7 (toll like receptor 7) | 2 | 49.3 | active
TLR7 (toll like receptor 7) | 3 | 50.3 | active
PIAS2 (protein inhibitor of activated STAT 2) | 1 | 46.3 | active
PIAS2 (protein inhibitor of activated STAT 2) | 2 | 52.4 | active
PIAS2 (protein inhibitor of activated STAT 2) | 3 | 50.2 | active
PIK3C2A | 1 | 117 | inactive
PIK3C2A | 2 | 114 | inactive
PIK3C2A | 3 | 101 | inactive
MAPK11 (mitogen-activated protein kinase 11) | 1 | 71 | active
MAPK11 (mitogen-activated protein kinase 11) | 2 | 71.5 | active
MAPK11 (mitogen-activated protein kinase 11) | 3 | 70.5 | active

Look-ups from above.
PIAS2 (protein inhibitor of activated STAT 2), technical replicate 2, outcome = active
Under “outcome”, ZNF541 (zinc finger protein 541), technical replicate 1 has active
For “viability, normalised (%)”, ZNF541 (zinc finger protein 541), technical replicate 3 reads 46
For “outcome”, PIAS2 (protein inhibitor of activated STAT 2), technical replicate 1 reads active

Next reagents follow:
target gene | technical replicate | viability, normalised (%) | outcome
TREX2 (three prime repair exonuclease 2) | 1 | 88 | inactive
TREX2 (three prime repair exonuclease 2) | 2 | 88.9 | inactive
TREX2 (three prime repair exonuclease 2) | 3 | 79 | active
KAT2B (lysine acetyltransferase 2B) | 1 | 54.6 | active
KAT2B (lysine acetyltransferase 2B) | 2 | 68.9 | active
KAT2B (lysine acetyltransferase 2B) | 3 | 49.7 | active
PDK4 (pyruvate dehydrogenase kinase 4) | 1 | 65.9 | active
PDK4 (pyruvate dehydrogenase kinase 4) | 2 | 71.5 | active
PDK4 (pyruvate dehydrogenase kinase 4) | 3 | 65.7 | active
MAP3K5 (mitogen-activated protein kinase kinase kinase 5) | 1 | 116 | inactive
MAP3K5 (mitogen-activated protein kinase kinase kinase 5) | 2 | 129 | inactive
MAP3K5 (mitogen-activated protein kinase kinase kinase 5) | 3 | 102 | inactive
MAPKAPK5 (MAPK activated protein kinase 5) | 1 | 102 | inactive
MAPKAPK5 (MAPK activated protein kinase 5) | 2 | 110 | inactive
MAPKAPK5 (MAPK activated protein kinase 5) | 3 | 89.4 | inactive
AK2 (adenylate kinase 2) | 1 | 91.5 | inactive
AK2 (adenylate kinase 2) | 2 | 91.4 | inactive
AK2 (adenylate kinase 2) | 3 | 81.4 | inactive
